This is a selection; strong and weak results do not stand in their true shares. At the low end of the ranking, values are background and their order means little.

Protein sequences, listed by entry. Tags and fused reporters are not part of them. Lines headed by an entry give the natural chain unless they say otherwise; changes in a name come on top.
UniProt Q9Y603: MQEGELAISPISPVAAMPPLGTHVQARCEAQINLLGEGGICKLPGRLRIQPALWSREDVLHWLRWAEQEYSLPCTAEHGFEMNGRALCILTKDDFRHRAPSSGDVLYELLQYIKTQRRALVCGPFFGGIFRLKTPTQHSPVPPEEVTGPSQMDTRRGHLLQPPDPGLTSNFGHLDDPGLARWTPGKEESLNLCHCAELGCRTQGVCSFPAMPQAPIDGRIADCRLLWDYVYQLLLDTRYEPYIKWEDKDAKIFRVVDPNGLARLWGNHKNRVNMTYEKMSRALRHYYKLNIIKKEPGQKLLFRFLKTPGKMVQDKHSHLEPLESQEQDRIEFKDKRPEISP

The target of the assay is ETV7 (UniProt Q9Y603). Put plainly: DAPPL (digital affinity profiling via proximity ligation, sequencing). As to conditions: 10 mM Tris-HCl pH 7.5, 50 mM NaCl, 1 mM DTT, 4% glycerol, room temperature, 30 min; GST-TFs on glutathione beads, 16-mer random dsDNA library, 0.1% …; high values mean tight binding; double strand, one strand shown; scale: fold enrichment (6-mer frequency, TF over GST control).
Sequence ATCCCA showed a binding signal of 1.2.

In turn, AGCATT showed a binding signal of 1.14.

In the case of TTTGGA, the binding signal was 1.3.

TTTTAT came in with a binding signal of 1.34.

Consider CATGAT, for which the binding signal was determined as 1.02.

Take CACCTG: the binding signal was 0.998.

In turn, CGTCGC came in with a binding signal of 1.23.

With ACGCGG, the binding signal amounted to 0.925.

Turning to AACTCA, the binding signal was determined as 1.2.

CATTAC gave a binding signal of 1.03.

In turn, CGTAGC gave a binding signal of 1.09.

GATCCC gave a binding signal of 0.991.

AGTAGC: the binding signal worked out at 0.968.

Sequence AATCCA had a binding signal of 1.14.

AACTAC displayed a binding signal of 1.39.

TGTCGC displayed a binding signal of 0.96.

In the case of ATACGC, the binding signal was found to be 1.06.

In the case of TTTCGG, the binding signal is 1.28.

Sequence TCTACA showed a binding signal of 0.953.

Sequence TAAACC had a binding signal of 1.22.

TACCCC registered a binding signal of 1.1.

Take ACTGAT: the binding signal was determined as 1.13.

TCGCCG showed a binding signal of 0.984.

The sequence AAACAG gave a binding signal of 1.04.

As to TGTACG, the binding signal was 1.09.

Take TGTCTG: the binding signal worked out at 1.02.

Sequence ATATCC registered a binding signal of 2.25.

On to CTGTTG, for which the binding signal was 1.05.

The sequence GGTTCA returned a binding signal of 0.972.

In turn, TCCCCG gave a binding signal of 1.15.

As to CAAACG, the binding signal worked out at 0.851.

In turn, CGGAAC had a binding signal of 0.995.

AGTACA displayed a binding signal of 1.21.

Consider CCTGAC, for which the binding signal worked out at 1.46.

Regarding TTACTA, the binding signal amounted to 1.36.

TATGTG: the binding signal is 1.04.

Regarding CAACAC, the binding signal stood at 1.13.

In turn, TCCTGT returned a binding signal of 1.89.

The sequence ATAGAT had a binding signal of 1.17.

In the case of AACTTT, the binding signal was 1.2.

The values are drawn from paper PMC7862700.
